Assay results as given in US8569380B2, “Oligomer-tricyclic conjugates” (Nektar Therapeutics, priority 2007, dated 2013).
No dose or concentration is given here for some results.

Tested on: sodium channels (neuronal INa) in isolated rat dorsal root ganglion cells
Assay: Sodium channel assay, whole-cell patch clamp, neuronal INa
Type: cell-based
Conditions: relative to carbamazepine; for Neuronal INa Fold Change Relative to Parent, 0.1 Hz: pacing 0.1 Hz; for Neuronal INa Fold Change Relative to Parent, 3 Hz: pacing 3 Hz

Row | Compound | Neuronal INa Fold Change Relative to Parent, 0.1 Hz | Neuronal INa Fold Change Relative to Parent, 3 Hz
1 | NC(=O)N1c2ccccc2C=Cc2ccccc21 [Carbamazepine, reference compound] | 1.0 | 1.0
2 | COCCOCCOCCNC(=O)N1c2ccccc2C=Cc2ccccc21 [mPEG3-N-Carbamazepine] | 1.4 | 5.1
3 | COCCOCCOCCOCCOCCOCCOCCNC(=O)N1c2ccccc2C=Cc2ccccc21 [mPEG7-N-Carbamazepine] | 1.4 | 1.4
